Data on one compound can be found in paper PMC8146397 (Nanomaterials, 2021).

The series is described as follows: In vivo pharmacokinetics after oral delivery (HPLC of plasma). How it is done: Healthy mice weighing 30 g were kept in the primate facility with free access to food and water a day before the commencement of the experiment. The mice were divided into two groups (n = 5). […] Blood plasma was stored at −20 °C until further use.

Under “mice, oral”, `O=C(O)c1cn(C2CC2)c2cc(N3CCNCC3)c(F)cc2c1=O` [CIP, Ciprofloxacin] registered a C max of 54.50 ± 2.57 µg/mL. Where the note is “mouse, in vivo, po”, the area under the curve AUC(0-t) was 211 ± 3.59 µg·h/mL and the Tmax amounted to 1 ± 3.37 h. Under “mouse, in vivo, po, C max, mice”, this compound gave a Cmax of 54.3 µg/mL.
